Test results published in article doi:10.1101/172809.
Results are given in words; binding and its absence hold for the method and conditions named. Some entries that bind do so weakly or less than the wild type.

By UniProt entry, the sequences of proteins in these tests, tags left out. Where a name states a change or a piece, a line headed by the entry shows the natural chain unless it says otherwise. Chains listed by the source or under a name are the forms on record and can include a tag or linker.
Dynamin-Related Protein 1 (DRP1), wild type, full length, isoform 2 (O00429, form named): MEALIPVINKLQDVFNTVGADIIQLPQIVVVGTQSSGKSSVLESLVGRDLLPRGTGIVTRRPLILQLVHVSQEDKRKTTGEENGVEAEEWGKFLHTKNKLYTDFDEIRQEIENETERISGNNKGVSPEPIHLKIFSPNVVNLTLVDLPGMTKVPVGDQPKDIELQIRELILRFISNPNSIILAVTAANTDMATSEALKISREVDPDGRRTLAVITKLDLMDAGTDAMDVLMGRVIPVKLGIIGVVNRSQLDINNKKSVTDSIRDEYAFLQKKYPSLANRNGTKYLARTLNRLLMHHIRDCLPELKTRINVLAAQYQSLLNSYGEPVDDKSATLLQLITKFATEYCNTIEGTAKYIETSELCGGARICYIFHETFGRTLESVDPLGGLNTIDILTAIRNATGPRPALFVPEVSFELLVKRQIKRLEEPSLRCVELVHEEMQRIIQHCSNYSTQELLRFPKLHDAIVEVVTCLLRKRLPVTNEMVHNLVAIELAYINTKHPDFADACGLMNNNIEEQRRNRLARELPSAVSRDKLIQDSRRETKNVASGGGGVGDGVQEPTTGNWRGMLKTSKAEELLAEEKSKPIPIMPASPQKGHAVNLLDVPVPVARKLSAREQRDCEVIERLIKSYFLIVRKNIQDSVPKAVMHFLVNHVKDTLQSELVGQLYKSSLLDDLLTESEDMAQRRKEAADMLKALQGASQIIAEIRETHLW
DRP1_(G362D), full length, disease-associated mutant (O00429, form named): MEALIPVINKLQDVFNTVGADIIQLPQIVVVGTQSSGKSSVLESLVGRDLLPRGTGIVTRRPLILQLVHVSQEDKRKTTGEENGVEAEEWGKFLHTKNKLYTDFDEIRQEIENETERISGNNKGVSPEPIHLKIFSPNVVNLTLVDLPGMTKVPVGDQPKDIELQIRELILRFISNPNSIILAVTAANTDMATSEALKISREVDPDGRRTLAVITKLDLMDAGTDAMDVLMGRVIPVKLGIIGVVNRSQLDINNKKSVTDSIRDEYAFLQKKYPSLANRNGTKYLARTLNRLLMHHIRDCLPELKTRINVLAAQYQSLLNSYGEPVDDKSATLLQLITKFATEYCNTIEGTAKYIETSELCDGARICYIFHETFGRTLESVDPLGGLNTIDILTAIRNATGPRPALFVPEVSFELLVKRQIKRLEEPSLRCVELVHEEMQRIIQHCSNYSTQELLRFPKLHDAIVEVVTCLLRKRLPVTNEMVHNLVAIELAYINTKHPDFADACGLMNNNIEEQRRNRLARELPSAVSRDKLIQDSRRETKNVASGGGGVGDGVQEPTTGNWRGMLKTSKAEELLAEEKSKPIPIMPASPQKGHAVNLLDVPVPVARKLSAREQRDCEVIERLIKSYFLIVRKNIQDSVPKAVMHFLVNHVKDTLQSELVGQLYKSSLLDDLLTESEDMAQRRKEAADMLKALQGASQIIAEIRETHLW
DRP1_(D221A), full length (O00429, form named): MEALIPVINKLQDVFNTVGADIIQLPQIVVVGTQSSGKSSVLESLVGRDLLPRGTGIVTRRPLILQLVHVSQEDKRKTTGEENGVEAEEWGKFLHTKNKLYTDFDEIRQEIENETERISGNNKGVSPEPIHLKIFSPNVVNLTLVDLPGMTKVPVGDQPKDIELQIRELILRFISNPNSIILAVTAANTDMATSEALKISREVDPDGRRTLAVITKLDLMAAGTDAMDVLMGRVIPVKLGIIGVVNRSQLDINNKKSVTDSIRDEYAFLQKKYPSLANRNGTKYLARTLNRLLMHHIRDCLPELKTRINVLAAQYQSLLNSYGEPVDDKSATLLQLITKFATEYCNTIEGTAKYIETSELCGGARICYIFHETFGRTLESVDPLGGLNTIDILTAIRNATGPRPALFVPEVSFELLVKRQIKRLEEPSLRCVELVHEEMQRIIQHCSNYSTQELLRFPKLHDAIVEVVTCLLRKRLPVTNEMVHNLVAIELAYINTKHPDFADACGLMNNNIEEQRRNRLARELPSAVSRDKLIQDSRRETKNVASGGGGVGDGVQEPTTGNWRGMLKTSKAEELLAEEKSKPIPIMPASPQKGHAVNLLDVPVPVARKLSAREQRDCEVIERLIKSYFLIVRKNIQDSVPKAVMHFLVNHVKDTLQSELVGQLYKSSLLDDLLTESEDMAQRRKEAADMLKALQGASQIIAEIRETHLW
DRP1_(D190A), full length (O00429, form named): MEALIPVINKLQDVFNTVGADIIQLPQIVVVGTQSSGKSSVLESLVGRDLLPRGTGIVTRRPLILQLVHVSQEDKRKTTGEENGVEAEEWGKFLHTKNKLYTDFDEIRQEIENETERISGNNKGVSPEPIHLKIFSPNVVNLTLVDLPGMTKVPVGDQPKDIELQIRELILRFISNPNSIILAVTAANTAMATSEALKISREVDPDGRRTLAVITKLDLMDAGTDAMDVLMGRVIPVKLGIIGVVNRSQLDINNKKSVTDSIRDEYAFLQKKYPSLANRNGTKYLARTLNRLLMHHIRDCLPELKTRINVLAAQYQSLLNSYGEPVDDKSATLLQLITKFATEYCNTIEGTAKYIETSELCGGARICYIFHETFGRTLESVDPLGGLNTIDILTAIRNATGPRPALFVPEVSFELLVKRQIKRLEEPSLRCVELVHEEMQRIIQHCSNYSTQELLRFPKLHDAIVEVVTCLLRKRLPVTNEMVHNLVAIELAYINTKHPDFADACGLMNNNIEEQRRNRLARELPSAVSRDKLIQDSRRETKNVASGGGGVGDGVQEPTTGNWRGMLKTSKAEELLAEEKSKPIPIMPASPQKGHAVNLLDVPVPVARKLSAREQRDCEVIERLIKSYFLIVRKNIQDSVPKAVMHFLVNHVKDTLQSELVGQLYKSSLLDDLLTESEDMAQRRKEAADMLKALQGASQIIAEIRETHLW

B1: Mitochondrial Dynamics 51, MID51_(132-463) (domain or fragment, UniProt Q9NQG6 132-463)
chain: RMSLQEKLLTYYRNRAAIPAGEQARAKQAAVDICAELRSFLRAKLPDMPLRDMYLSGSLYDDLQVVTADHIQLIVPLVLEQNLWSCIPGEDTIMNVPGFFLVRRENPEYFPRGSSYWDRCVVGGYLSPKTVADTFEKVVAGSINWPAIGSLLDYVIRPAPPPEALTLEVQYERDKHLFIDFLPSVTLGDTVLVAKPHRLAQYDNLWRLSLRPAETARLRALDQADSGCRSLCLKILKAICKSTPALGHLTASQLTNVILHLAQEEADWSPDMLADRFLQALRGLISYLEAGVLPSALNPKVNLFAELTPEEIDELGYTLYCSLSEPEVLLQT
B2: Mitochondrial Dynamics 49, MID49_(126-454) (domain or fragment, UniProt Q96C03-1 126-454)
chain: TLQERLLAFERDRVTIPAAQVALAKQLAGDIALELQAYFRSKFPELPFGAFVPGGPLYDGLQAGAADHVRLLVPLVLEPGLWSLVPGVDTVARDPRCWAVRRTQLEFCPRGSSPWDRFLVGGYLSSRVLLELLRKALAASVNWPAIGSLLGCLIRPSMASEELLLEVQHERLELTVAVLVAVPGVDADDRLLLAWPLEGLAGNLWLQDLYPVEAARLRALDDHDAGTRRRLLLLLCAVCRGCSALGQLGRGHLTQVVLRLGEDNVDWTEEALGERFLQALELLIGSLEQASLPCHFNPSVNLFSSLREEEIDDIGYALYSGLQEPEGLL

What was measured:
Experiment in all cases: negative stain electron microscopy of assembly and coassembly reactions
[1] = molecular target: Dynamin-Related Protein 1 (DRP1), wild type, full length, isoform 2 (human) (UniProt O00429)
[2] = molecular target: DRP1_(G362D), full length, disease-associated mutant (human) (UniProt O00429)
[3] = molecular target: DRP1_(D221A), full length (human) (UniProt O00429)
[4] = molecular target: DRP1_(D190A), full length (human) (UniProt O00429)

Row | Binder | binding [1] | binding [2] | binding [3] | binding [4]
1 | B1 | binds | – | – | –
2 | B2 | – | no binding | no binding | no binding
